Results on 1 substance are retold here after publication PMC10943805.

Chains of the proteins cited; added tags and fusions are not shown.
UniProt Q2EJA0: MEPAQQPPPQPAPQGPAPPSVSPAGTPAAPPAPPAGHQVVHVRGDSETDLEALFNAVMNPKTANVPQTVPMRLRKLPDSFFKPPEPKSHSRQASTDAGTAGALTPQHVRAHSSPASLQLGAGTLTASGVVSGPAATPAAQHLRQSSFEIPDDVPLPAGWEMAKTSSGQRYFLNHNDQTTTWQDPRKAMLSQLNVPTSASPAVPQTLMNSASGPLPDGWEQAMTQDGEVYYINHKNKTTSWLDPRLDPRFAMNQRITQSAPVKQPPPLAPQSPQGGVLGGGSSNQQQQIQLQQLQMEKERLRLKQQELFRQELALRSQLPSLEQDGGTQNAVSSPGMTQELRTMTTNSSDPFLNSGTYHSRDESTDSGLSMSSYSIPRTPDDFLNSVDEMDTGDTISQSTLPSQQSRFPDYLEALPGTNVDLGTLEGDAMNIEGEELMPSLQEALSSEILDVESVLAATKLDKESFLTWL

No constants are given. Whether binding was seen depends on the method and setting. Binding seen in cells or lysates may run through a third protein. Some entries that bind do so weakly or less than the wild type.

The target in the experiment is Yes-associated protein (YAP) (rat (endogenous in primary rat chondrocytes)) (UniProt Q2EJA0). Put plainly: co-IP; lysate of primary rat chondrocytes (control or treated with IL-1β for 24 h; in Fig. 7I also after LIPUS) in IP lysis buffer with protease inhibitors; pre-cleared with Protein A+G magnetic beads; anti-YAP antibody overnight at 4 °C; western blot of the precipitate. On the technique in general: In western blotting, separated proteins are transferred to a membrane and probed.

Take P62 (from UniProt O08623 1-439): the binding entry was “binds”.
